± gives the standard deviation of the averaged measurements. This is a selection; strong and weak results do not stand in their true shares. Most entries show no effect beyond the scatter of the controls.
Compound: Nc1ncnc2c1ncn2[C@@H]1O[C@H](COP(=O)(O)OP(=O)(O)OP(=O)(O)O)[C@@H](O)[C@H]1O [adenosine triphosphate]
Experiment: NP40-soluble protein abundance relative to vehicle (solubility fold change) (ratio); higher = more soluble protein in presence of ATP
Method in brief: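 Jurkat crude lysate (Dounce-homogenised) was treated with eight concentrations from 0.1 to 10 mM for 10 min at room temperature, then 3 min at 37 °C. It was solubilised with 0.8% NP40 and benzonase (60 min, 4 °C) and ultracentrifuged, and the supernatant was TMT-labelled for LC-MS/MS. Intensities were vsn-normalised, and the value is the fold change against the NP40-processed vehicle per replicate, from three independent experiments.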

By UniProt entry, the sequences of proteins in these tests, tags left out. Where a name states a change or a piece, a line headed by the entry shows the natural chain unless it says otherwise.
UniProt Q99747: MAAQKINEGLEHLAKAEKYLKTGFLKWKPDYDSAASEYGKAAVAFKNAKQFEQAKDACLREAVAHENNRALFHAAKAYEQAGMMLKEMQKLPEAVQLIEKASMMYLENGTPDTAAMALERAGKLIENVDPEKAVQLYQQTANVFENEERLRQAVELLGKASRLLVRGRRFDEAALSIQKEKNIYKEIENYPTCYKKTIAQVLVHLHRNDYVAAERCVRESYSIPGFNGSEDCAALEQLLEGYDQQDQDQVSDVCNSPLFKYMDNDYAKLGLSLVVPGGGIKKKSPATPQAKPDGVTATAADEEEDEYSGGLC
UniProt Q9BV20: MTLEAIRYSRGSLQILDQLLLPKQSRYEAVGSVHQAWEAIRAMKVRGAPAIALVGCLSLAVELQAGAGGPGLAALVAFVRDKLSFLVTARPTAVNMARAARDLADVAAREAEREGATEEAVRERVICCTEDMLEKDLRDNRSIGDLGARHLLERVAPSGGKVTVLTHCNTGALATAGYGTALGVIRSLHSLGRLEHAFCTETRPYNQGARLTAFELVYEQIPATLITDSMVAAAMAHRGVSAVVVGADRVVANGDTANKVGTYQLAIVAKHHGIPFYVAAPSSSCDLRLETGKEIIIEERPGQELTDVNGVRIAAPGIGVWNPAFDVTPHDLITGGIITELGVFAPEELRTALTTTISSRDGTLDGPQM
UniProt Q9BV73: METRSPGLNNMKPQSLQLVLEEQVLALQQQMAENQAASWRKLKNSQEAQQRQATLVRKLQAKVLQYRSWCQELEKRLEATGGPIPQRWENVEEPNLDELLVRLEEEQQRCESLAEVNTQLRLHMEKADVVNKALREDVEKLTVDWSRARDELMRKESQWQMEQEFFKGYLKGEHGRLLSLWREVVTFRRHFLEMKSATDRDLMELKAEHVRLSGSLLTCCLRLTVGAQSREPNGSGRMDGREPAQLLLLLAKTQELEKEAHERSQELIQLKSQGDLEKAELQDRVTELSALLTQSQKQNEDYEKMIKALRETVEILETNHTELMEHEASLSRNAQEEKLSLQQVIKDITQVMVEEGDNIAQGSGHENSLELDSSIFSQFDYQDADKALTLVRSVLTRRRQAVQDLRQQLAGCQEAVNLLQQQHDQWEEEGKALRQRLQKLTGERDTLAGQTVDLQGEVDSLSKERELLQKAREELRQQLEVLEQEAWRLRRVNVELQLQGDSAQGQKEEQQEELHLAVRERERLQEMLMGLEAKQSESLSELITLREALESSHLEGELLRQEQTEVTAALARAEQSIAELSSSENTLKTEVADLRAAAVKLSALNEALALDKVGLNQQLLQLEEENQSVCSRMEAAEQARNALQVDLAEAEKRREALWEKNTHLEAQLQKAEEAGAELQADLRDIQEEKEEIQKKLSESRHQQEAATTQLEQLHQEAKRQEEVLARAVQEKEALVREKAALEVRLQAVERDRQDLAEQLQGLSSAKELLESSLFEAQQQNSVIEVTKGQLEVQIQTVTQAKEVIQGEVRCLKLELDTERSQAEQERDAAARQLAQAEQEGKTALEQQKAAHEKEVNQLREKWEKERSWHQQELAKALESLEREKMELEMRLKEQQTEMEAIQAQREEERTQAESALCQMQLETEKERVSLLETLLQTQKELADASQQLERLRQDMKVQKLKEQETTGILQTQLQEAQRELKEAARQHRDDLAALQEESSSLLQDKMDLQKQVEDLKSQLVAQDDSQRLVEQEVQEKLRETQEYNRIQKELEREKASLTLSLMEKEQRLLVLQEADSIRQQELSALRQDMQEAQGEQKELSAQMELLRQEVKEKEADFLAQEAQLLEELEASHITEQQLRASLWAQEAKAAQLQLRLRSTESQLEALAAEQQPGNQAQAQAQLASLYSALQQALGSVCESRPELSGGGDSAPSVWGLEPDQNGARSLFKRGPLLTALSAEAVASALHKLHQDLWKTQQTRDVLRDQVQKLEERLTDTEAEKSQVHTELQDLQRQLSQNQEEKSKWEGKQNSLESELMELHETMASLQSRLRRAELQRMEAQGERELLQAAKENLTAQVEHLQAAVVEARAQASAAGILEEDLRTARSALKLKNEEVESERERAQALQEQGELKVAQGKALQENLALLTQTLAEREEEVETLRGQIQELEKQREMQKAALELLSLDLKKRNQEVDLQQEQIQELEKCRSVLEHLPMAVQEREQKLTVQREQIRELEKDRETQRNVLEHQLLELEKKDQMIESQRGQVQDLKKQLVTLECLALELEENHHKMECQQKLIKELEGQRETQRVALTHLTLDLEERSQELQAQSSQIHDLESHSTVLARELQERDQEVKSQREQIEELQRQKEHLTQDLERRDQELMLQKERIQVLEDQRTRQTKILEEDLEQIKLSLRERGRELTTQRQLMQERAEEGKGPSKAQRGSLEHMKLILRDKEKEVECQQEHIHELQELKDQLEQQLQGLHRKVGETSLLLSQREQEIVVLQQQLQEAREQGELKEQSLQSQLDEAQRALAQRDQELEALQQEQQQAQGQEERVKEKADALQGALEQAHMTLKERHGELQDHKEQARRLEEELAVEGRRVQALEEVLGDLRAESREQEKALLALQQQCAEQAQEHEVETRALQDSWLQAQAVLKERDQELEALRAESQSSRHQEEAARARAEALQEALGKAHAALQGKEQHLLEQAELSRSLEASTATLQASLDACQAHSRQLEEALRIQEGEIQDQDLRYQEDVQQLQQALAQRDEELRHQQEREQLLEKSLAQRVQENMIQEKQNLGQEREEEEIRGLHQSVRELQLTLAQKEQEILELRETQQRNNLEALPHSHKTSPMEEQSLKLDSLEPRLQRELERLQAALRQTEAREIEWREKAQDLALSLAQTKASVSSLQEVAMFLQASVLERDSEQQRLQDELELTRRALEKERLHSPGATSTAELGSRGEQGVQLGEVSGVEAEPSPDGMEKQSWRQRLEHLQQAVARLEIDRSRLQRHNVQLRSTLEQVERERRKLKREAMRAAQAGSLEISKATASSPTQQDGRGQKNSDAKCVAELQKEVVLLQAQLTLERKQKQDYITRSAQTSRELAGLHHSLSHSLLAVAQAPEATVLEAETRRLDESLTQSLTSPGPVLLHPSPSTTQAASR
UniProt Q99470: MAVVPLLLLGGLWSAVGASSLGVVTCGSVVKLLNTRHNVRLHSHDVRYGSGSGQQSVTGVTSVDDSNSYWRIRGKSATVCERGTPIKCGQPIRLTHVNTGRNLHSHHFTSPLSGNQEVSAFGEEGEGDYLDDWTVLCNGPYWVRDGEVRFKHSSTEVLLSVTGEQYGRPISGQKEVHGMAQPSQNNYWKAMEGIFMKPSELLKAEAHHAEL
UniProt Q99961: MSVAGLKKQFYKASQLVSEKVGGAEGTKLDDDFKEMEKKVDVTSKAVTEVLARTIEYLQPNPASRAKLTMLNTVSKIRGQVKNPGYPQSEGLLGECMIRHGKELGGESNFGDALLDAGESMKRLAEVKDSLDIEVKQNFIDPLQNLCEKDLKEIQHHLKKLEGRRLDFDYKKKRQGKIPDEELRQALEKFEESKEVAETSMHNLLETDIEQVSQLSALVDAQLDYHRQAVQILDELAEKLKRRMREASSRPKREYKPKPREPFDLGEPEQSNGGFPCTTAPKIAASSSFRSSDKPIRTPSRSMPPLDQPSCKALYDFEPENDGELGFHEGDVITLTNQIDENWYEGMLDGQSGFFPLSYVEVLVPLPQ
UniProt Q9BWE0: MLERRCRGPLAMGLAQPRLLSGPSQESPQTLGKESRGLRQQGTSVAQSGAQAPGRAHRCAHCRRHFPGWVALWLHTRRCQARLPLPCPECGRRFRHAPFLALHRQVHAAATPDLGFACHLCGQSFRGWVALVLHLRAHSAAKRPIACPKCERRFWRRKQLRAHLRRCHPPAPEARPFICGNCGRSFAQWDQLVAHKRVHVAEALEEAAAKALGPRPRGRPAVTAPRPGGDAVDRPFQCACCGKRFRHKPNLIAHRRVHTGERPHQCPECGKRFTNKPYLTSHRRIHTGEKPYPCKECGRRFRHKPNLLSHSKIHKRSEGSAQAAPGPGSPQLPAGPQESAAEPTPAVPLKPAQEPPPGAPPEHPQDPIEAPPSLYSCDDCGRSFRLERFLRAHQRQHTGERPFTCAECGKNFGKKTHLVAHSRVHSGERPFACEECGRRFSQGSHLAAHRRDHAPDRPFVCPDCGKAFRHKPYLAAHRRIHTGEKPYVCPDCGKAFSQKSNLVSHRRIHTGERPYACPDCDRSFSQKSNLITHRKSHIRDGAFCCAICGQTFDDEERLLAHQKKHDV
UniProt Q9BYG5: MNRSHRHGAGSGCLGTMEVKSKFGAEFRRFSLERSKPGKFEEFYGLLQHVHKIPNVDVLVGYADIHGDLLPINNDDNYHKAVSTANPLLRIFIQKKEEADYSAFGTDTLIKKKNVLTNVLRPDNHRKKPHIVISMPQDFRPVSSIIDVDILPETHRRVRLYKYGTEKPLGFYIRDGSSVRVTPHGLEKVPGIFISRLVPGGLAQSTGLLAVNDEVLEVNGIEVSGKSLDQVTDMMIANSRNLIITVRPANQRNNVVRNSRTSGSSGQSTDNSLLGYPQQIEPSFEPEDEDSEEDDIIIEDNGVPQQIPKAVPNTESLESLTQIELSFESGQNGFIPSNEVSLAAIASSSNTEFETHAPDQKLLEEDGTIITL
UniProt Q9BTK6, whole entry: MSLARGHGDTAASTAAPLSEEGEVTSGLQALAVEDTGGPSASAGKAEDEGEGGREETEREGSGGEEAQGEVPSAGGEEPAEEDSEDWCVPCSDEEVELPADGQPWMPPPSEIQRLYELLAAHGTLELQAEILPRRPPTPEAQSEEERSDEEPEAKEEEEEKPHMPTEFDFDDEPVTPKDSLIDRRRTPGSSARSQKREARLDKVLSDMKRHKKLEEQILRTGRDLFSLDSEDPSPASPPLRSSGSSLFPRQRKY
UniProt Q9BSY9: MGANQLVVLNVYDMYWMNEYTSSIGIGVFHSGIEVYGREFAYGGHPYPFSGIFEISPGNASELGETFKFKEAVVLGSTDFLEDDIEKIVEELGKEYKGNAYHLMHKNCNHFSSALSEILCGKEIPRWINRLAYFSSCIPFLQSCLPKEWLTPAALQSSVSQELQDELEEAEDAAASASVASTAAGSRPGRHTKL
UniProt Q9BWJ5: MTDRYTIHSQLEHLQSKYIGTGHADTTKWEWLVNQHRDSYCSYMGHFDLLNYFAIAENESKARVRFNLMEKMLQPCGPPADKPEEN
UniProt Q9BUR4: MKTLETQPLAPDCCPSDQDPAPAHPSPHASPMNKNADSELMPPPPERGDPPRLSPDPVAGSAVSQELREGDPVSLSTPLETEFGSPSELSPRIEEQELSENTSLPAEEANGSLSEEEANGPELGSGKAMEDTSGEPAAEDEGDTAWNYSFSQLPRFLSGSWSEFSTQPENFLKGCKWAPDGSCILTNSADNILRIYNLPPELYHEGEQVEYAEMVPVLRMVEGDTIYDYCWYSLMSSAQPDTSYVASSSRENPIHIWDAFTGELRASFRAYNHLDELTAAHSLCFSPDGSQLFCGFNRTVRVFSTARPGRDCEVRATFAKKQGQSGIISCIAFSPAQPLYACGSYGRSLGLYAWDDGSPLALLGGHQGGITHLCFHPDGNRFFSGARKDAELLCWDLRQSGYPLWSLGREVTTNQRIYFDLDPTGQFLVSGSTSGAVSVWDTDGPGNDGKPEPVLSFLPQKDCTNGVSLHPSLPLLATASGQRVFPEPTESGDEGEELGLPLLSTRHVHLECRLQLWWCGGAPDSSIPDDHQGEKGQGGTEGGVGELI
UniProt Q9BXF6: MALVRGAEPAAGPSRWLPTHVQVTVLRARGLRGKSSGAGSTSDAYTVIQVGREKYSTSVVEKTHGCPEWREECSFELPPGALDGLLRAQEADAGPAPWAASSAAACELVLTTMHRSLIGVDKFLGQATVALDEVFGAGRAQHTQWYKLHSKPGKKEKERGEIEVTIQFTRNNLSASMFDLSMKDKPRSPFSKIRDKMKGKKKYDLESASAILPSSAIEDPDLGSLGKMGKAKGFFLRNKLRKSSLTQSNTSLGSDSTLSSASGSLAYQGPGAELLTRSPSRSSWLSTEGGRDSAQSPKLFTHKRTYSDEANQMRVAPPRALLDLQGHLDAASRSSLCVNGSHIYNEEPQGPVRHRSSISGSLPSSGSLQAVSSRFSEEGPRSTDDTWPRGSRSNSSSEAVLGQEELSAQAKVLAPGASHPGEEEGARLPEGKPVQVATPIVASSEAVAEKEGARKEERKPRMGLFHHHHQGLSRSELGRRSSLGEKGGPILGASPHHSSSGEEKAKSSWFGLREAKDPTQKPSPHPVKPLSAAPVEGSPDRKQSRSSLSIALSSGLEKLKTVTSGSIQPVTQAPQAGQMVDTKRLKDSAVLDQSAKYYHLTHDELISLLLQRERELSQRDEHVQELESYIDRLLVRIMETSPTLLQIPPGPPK
UniProt Q9BWT6: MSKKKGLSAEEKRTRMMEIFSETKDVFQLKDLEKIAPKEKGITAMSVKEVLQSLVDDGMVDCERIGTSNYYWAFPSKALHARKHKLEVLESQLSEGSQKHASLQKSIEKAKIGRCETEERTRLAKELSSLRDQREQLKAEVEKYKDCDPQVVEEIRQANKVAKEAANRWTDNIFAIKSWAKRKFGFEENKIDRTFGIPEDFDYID

Target	NP40-soluble protein abundance (concentration: 0.1mM)	NP40-soluble protein abundance (concentration: 0.5mM)
SEC62 (UniProt Q99442)	0.995 ± 0.024	0.978 ± 0.047
UniProt Q9BTA9 and related entries	0.964 ± 0.048	0.94 ± 0.028
UniProt Q9BWS9 and related entries	1.05 ± 0.092	1.06 ± 0.08
PIK3R4 (UniProt Q99570)	1.01 ± 0.049	0.972 ± 0.01
NEU1 (UniProt Q99519)	0.9473 ± 0.0039	0.998 ± 0.087
CARD11 (UniProt Q9BXL7)	1.012 ± 0.0013	0.9727 ± 0.0075
HIRIP3 (UniProt Q9BW71)	0.973 ± 0.015	0.946 ± 0.064
UniProt Q9BPX7-2|Q9BPX7	1.05 ± 0.048	1.07 ± 0.036
UniProt Q9BY77 and related entries	0.955 ± 0.025	0.933 ± 0.012
UniProt Q9BPZ7 and related entries	0.956 ± 0.043	1.02 ± 0.035
MRPS26 (UniProt Q9BYN8)	0.93 ± 0.12	0.885 ± 0.17
NLN (UniProt Q9BYT8)	1.06 ± 0.089	1.04 ± 0.066
UniProt Q9BUB5 and related entries	1.03 ± 0.033	1.02 ± 0.037
UniProt Q9BTD8 and related entries	1.01 ± 0.065	1.02 ± 0.084
MNT (UniProt Q99583)	0.916 ± 0.01	0.915 ± 0.075
UniProt Q9BY12 and related entries	1.02 ± 0.019	1.04 ± 0.084
UniProt Q99638 and related entries	1.04 ± 0.13	1.02 ± 0.17
UniProt Q9BRT3	0.936 ± 0.053	0.898 ± 0.11
UniProt Q99490-2|Q99490	1.01 ± 0.025	0.981 ± 0.037
UniProt Q9BSR8 and related entries	0.961 ± 0.021	1.05 ± 0.13
PSMB7 (UniProt Q99436)	0.97 ± 0.1	0.983 ± 0.04
KATNAL1 (UniProt Q9BW62)	0.994 ± 0.072	1.02 ± 0.089
UniProt Q99728 and related entries	0.976 ± 0.087	1.05 ± 0.034
EIF2A (UniProt Q9BY44)	0.99 ± 0.046	1.01 ± 0.032

Another view of part of the listing above:
UniProt Q9BTA9 and related entries
  NP40-soluble protein abundance (concentration: 0.1mM): 0.964 ± 0.048; NP40-soluble protein abundance (concentration: 0.5mM): 0.94 ± 0.028
UniProt Q9BWS9 and related entries
  NP40-soluble protein abundance (concentration: 0.1mM): 1.05 ± 0.092; NP40-soluble protein abundance (concentration: 0.5mM): 1.06 ± 0.08
PIK3R4 (UniProt Q99570)
  NP40-soluble protein abundance (concentration: 0.1mM): 1.01 ± 0.049; NP40-soluble protein abundance (concentration: 0.5mM): 0.972 ± 0.01
NEU1 (UniProt Q99519)
  NP40-soluble protein abundance (concentration: 0.1mM): 0.9473 ± 0.0039; NP40-soluble protein abundance (concentration: 0.5mM): 0.998 ± 0.087

More records follow.

Target	NP40-soluble protein abundance (concentration: 0.1mM)	NP40-soluble protein abundance (concentration: 0.5mM)
KIFC1 (UniProt Q9BW19)	1.06 ± 0.012	1.08 ± 0.047
SETD2 (UniProt Q9BYW2)	1.04 ± 0.04	1.05 ± 0.034
TSNAX (UniProt Q99598)	0.9996 ± 0.0085	0.986 ± 0.025
UniProt Q9BU76 and related entries	0.966 ± 0.041	1.02 ± 0.044
WDR11 (UniProt Q9BZH6)	0.944 ± 0.019	0.956 ± 0.056
DOK1 (UniProt Q99704)	0.978 ± 0.041	0.996 ± 0.078
TXNDC17 (UniProt Q9BRA2)	1.16 ± 0.22	0.982 ± 0.063
IFIH1 (UniProt Q9BYX4)	1.03 ± 0.025	0.967 ± 0.068
UniProt Q99733-2	0.978 ± 0.067	1.01 ± 0.08
NAPG (UniProt Q99747)	0.933 ± 0.048	0.912 ± 0.028
TMED9 (UniProt Q9BVK6)	1.07 ± 0.11	1.03 ± 0.095
MRI1 (UniProt Q9BV20)	1.02 ± 0.071	1.02 ± 0.053
UniProt Q9BZ95 and related entries	1.06 ± 0.072	1.18 ± 0.056
UniProt Q9BV73 and related entries	0.97 ± 0.034	0.966 ± 0.061
BCL7B (UniProt Q9BQE9)	0.881 ± 0.13	0.944 ± 0.17
UniProt Q99538 and related entries	0.945 ± 0.042	0.917 ± 0.014
NIPSNAP1 (UniProt Q9BPW8)	1.04 ± 0.05	1.03 ± 0.053
UniProt Q96TA1 and related entries	1.02 ± 0.021	1.03 ± 0.027
GPATCH1 (UniProt Q9BRR8)	0.982 ± 0.057	0.989 ± 0.12
UniProt Q9BRJ7 and related entries	1.03 ± 0.073	0.978 ± 0.045
UniProt Q99808 and related entries	0.996 ± 0.025	1.03 ± 0.012
BRIP1 (UniProt Q9BX63)	1.09 ± 0.012	1.04 ± 0.055
UniProt Q9BZI7 and related entries	0.997 ± 0.01	1.03 ± 0.053
UniProt Q9BYX2 and related entries	1.07 ± 0.088	1.02 ± 0.011

Target	NP40-soluble protein abundance (concentration: 0.1mM)	NP40-soluble protein abundance (concentration: 0.5mM)
WDR77 (UniProt Q9BQA1)	1.04 ± 0.069	1.06 ± 0.058
UniProt Q9BVJ6 and related entries	1.01 ± 0.05	1.05 ± 0.047
SDF2 (UniProt Q99470)	1 ± 0.046	0.957 ± 0.083
SLC12A9 (UniProt Q9BXP2)	1.01 ± 0.093	0.923 ± 0.047
UniProt Q9BSJ2 and related entries	1.04 ± 0.14	1.04 ± 0.026
UniProt Q9BRT2 and related entries	0.978 ± 0.11	0.909 ± 0.12
CDC5L (UniProt Q99459)	0.991 ± 0.019	1 ± 0.053
UniProt Q9BSF4	0.889 ± 0.049	0.924 ± 0.13
PDCD2L (UniProt Q9BRP1)	1.05 ± 0.051	1.02 ± 0.067
SPATA5L1 (UniProt Q9BVQ7)	1.08 ± 0.051	1.32 ± 0.12
UniProt Q9BUK6 and related entries	1.03 ± 0.061	1.06 ± 0.037
UniProt Q99707 and related entries	1.02 ± 0.035	1.04 ± 0.042
UniProt Q9BZL1	1.05 ± 0.071	1.06 ± 0.059
SH3GL1 (UniProt Q99961)	1 ± 0.065	0.997 ± 0.01
UniProt Q99714 and related entries	0.9845 ± 0.0067	0.991 ± 0.011
UniProt Q9BVV7	1 ± 0.04	0.999 ± 0.033
PI4K2A (UniProt Q9BTU6)	1.03 ± 0.065	1.04 ± 0.055
ULBP2 (UniProt Q9BZM5)	0.933 ± 0.074	0.939 ± 0.075
ADI1 (UniProt Q9BV57)	0.996 ± 0.074	1 ± 0.1
UniProt Q9BXP5-2|Q9BXP5-3|Q9BXP5-4	1 ± 0.02	1.06 ± 0.064
UniProt Q99640 and related entries	0.974 ± 0.051	1.02 ± 0.057
TMEM43 (UniProt Q9BTV4)	1.06 ± 0.088	1.07 ± 0.069
KLF16 (UniProt Q9BXK1)	0.9 ± 0.18	0.892 ± 0.18
CCT7 (UniProt Q99832)	0.932 ± 0.1	0.989 ± 0.078

Target	NP40-soluble protein abundance (concentration: 0.1mM)	NP40-soluble protein abundance (concentration: 0.5mM)
MRPL9 (UniProt Q9BYD2)	0.951 ± 0.071	1 ± 0.074
MAK16 (UniProt Q9BXY0)	0.984 ± 0.073	1.05 ± 0.089
UniProt Q9BXS5 and related entries	1.03 ± 0.12	1 ± 0.068
UniProt Q96TA2 and related entries	1.02 ± 0.029	1.05 ± 0.045
UniProt Q9BV81	1 ± 0.052	0.959 ± 0.086
THUMPD3 (UniProt Q9BV44)	1 ± 0.076	1.02 ± 0.059
TRMT61B (UniProt Q9BVS5)	1.01 ± 0.035	1.02 ± 0.059
KIF2C (UniProt Q99661)	1.02 ± 0.046	1.04 ± 0.055
COPS4 (UniProt Q9BT78)	0.961 ± 0.041	0.959 ± 0.04
CPPED1 (UniProt Q9BRF8)	1.03 ± 0.076	1.06 ± 0.082
UniProt Q9BSB4	1.06 ± 0.1	1.06 ± 0.078
UniProt Q9BWE0 and related entries	0.98 ± 0.042	0.947 ± 0.054
DNAJC7 (UniProt Q99615)	0.986 ± 0.033	1 ± 0.039
PARD6B (UniProt Q9BYG5)	1.02 ± 0.055	1.06 ± 0.06
DPH2 (UniProt Q9BQC3)	0.989 ± 0.016	0.934 ± 0.084
UniProt Q9BW83 and related entries	1.04 ± 0.1	1.02 ± 0.1
UniProt Q9BYD1 and related entries	1.03 ± 0.13	1.02 ± 0.057
MRPL1 (UniProt Q9BYD6)	0.953 ± 0.089	0.992 ± 0.056
UniProt Q9BTK6	0.866 ± 0.19	0.829 ± 0.21
DESI2 (UniProt Q9BSY9)	1.01 ± 0.054	1 ± 0.034
UniProt Q9BVP2 and related entries	1.15 ± 0.097	1.23 ± 0.078
UniProt Q99447 and related entries	1.04 ± 0.1	1.03 ± 0.095
THTPA (UniProt Q9BU02)	0.962 ± 0.097	0.933 ± 0.063
SF3B5 (UniProt Q9BWJ5)	0.934 ± 0.11	0.984 ± 0.092

Target	NP40-soluble protein abundance (concentration: 0.1mM)	NP40-soluble protein abundance (concentration: 0.5mM)
UniProt Q9BUR4	1.04 ± 0.012	1.14 ± 0.013
UniProt Q9BQ24 and related entries	1.1 ± 0.092	1.12 ± 0.033
UniProt Q99471 and related entries	0.887 ± 0.14	0.894 ± 0.16
UniProt Q9BYV8	0.942 ± 0.036	0.9607 ± 0.0058
UniProt Q9BUE6 and related entries	1 ± 0.028	1.02 ± 0.1
UniProt Q9BTE3 and related entries	1.05 ± 0.048	1.07 ± 0.056
PARK7 (UniProt Q99497)	0.986 ± 0.021	1 ± 0.05
UniProt Q99828 and related entries	1.03 ± 0.095	0.933 ± 0.096
UniProt Q9BT22 and related entries	1.03 ± 0.06	1.03 ± 0.053
RAB11FIP5 (UniProt Q9BXF6)	1.18 ± 0.21	1.15 ± 0.077
OSBPL11 (UniProt Q9BXB4)	1.04 ± 0.015	1.01 ± 0.012
CABLES2 (UniProt Q9BTV7)	1.15 ± 0.066	1.09 ± 0.19
RNF5 (UniProt Q99942)	0.956 ± 0.038	0.935 ± 0.056
UniProt Q9C035 and related entries	0.986 ± 0.07	0.976 ± 0.056
UHRF1 (UniProt Q96T88)	1.04 ± 0.025	1.07 ± 0.036
EFHD1 (UniProt Q9BUP0)	0.818 ± 0.088	0.753 ± 0.054
ECSIT (UniProt Q9BQ95)	0.993 ± 0.05	0.992 ± 0.053
UniProt Q9BQS8 and related entries	0.986 ± 0.018	0.962 ± 0.032
MND1 (UniProt Q9BWT6)	0.936 ± 0.058	0.886 ± 0.092
UniProt Q9BV86	1.05 ± 0.07	0.985 ± 0.078
UniProt Q9BRP8-2|Q9BRP8	0.934 ± 0.11	0.911 ± 0.13
UniProt Q99755-3|A6PW57	1.022 ± 0.0041	1.17 ± 0.016
UniProt Q9BWU1	0.971 ± 0.09	0.996 ± 0.045
GNB1L (UniProt Q9BYB4)	1.06 ± 0.067	1.07 ± 0.063
